PMC7225313
Where two headings read alike, the source gives them in different places. No constants are given. Whether binding was seen depends on the method and setting. Binding seen in cells or lysates may run through a third protein. Some results given as binding are weak or reduced against the parent protein; the word gives no strength.

Protein sequences, listed by entry. Tags and fused reporters are not part of them. Residues count along the entry.
UniProt Q79FK9: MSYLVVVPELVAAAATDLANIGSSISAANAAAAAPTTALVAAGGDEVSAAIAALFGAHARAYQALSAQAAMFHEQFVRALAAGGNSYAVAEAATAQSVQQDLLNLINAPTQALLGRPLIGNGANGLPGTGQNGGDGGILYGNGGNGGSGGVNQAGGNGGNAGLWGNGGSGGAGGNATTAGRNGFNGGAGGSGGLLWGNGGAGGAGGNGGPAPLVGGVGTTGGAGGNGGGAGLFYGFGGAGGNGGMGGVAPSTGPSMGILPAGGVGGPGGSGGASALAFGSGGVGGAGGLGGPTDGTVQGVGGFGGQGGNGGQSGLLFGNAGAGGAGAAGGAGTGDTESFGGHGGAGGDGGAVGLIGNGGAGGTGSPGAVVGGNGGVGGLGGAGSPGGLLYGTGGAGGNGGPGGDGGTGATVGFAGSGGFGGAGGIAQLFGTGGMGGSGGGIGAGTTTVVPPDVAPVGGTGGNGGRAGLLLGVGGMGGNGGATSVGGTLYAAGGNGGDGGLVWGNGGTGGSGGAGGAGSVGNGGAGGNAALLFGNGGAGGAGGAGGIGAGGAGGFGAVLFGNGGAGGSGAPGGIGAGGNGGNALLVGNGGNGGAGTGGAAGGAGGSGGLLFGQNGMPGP
UniProt Q9QUK6, residues 26-835: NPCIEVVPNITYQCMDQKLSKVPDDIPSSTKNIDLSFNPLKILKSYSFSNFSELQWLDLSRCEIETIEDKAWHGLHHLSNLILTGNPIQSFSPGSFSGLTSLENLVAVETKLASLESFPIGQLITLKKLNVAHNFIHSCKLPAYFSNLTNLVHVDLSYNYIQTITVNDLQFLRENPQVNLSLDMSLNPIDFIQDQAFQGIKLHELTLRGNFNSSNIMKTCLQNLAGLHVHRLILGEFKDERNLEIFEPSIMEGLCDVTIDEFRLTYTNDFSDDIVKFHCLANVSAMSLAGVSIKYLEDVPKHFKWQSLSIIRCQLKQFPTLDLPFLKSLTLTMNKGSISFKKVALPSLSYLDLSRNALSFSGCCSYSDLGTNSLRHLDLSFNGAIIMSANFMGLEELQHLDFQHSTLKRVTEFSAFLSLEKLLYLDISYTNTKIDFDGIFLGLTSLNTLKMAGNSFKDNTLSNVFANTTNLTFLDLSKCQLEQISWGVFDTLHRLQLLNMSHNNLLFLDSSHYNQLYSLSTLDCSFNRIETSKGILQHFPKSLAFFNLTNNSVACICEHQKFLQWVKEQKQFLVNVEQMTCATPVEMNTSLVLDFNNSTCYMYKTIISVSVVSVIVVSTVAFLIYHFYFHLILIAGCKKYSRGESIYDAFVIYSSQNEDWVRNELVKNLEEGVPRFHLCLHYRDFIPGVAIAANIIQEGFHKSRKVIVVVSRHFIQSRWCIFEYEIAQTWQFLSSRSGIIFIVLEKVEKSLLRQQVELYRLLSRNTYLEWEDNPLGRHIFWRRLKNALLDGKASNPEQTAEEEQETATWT

What was measured:
[1] = biological target: T1, S100A9 (mouse (endogenous in RAW264.7)) (UniProt P31725); assay: co-IP
T1 sequence: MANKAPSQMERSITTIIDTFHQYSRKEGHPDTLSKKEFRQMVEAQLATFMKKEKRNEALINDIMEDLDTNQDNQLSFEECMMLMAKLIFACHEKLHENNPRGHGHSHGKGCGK

[2] = biological target: Rv1768 (PE_PGRS31), full-length, 6xHis-tagged (M. tuberculosis H37Rv) (UniProt Q79FK9); assay: pull-down; only the target purified
[3] = biological target: Rv1768 (PE_PGRS31), full-length, 6xHis-tagged (M. tuberculosis H37Rv) (UniProt Q79FK9); assay: pull-down; only the target purified; remark: listed apart in the source

With “Rv1768 expressed from pcDNA3.1-Rv1768 in RAW264.7 cells (from UniProt Q79FK9 1-618)” the binding [1] was “binds”.

In the case of “Toll-like receptor 4 (TLR4) (from UniProt Q9QUK6 26-835)”, the binding [2] is reported as “no binding”.

B1: S100A9 (protein, UniProt P31725 1-113)
chain: MANKAPSQMERSITTIIDTFHQYSRKEGHPDTLSKKEFRQMVEAQLATFMKKEKRNEALINDIMEDLDTNQDNQLSFEECMMLMAKLIFACHEKLHENNPRGHGHSHGKGCGK
With B1 the binding [3] was “binds”.
